No constants are given. Whether binding was seen depends on the method and setting. Binding seen in cells or lysates may run through a third protein. Some entries that bind do so weakly or less than the wild type.
Target: hnRNPU (human (endogenous in HCT116 and FHC)) (UniProt Q00839)
Experiment: co-IP; HCT116 nucleoprotein extracts treated with RNase; precipitated with antibody to hnRNPK (or to hnRNPU) or IgG, protein-A/G Sepharose beads, 4°C; partners detected by western blot

hnRNPK (from UniProt P61978 1-463)
binding: binds
